PubChem BioAssay AID504784 | Drosophila RNAi Screening Center, 2011
Aim: 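Genome-wide knock-down for genes giving too much or too little stored lipid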 (primary screen). Cell system: Drosophila Kc167 embryonic cells. Reagents: long dsRNA against Drosophila genes, about 250 ng dsRNA per well. Time to read-out: 4 days. Treatment: cells fed 400 µM oleic acid bound to BSA. Measurement: 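Cells imaged and segmented; ratio of lipid droplet area to nuclear area, log-transformed, then normalised as a B-score over the screen; higher means more stored lipid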. Scale: droplet/nuclear area B-score: higher = more stored lipid (overstorage).
The screen tested about 17,000 reagents; shown is a random part of those with a known target gene and a result. 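Each column is one replicate's B-score; the combined score over replicates was not deposited, so single values may mislead.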 Reagents against one gene are numbered here. Names joined by + are all predicted targets of the reagent. Reagent sequences are not shown.

predicted target | reagent | droplet/nuclear area B-score, replicate 1 | droplet/nuclear area B-score, replicate 2 | droplet/nuclear area B-score, replicate 3
CG8079 | 1 | 0.0104 | -1.53 | –
CG8079 | 2 | 0.971 | -0.0414 | –
DIP-delta | 1 | 1.01 | 0.246 | –
DIP-delta | 2 | 0.27 | -0.911 | –
CG33158 | 1 | 1.56 | -0.4 | –
CG33158 | 2 | 0 | -0.0498 | –
CG33158 | 3 | -0.985 | -0.468 | –
Pak3 | 1 | 0.0913 | 0.495 | –
CG33170 | 1 | -0.725 | -0.108 | –
CG33170 | 2 | -0.499 | 0.966 | –
Not1 | 1 | 2.86 | 2.02 | –
Not1 | 2 | 7.14 | 3.03 | –
CG4822 | 1 | -1.92 | -1.19 | –
CG12362 | 1 | -0.932 | -1.31 | –
CG32459 | 1 | -0.484 | 0.779 | –
Zasp67 | 1 | 0.0108 | -0.224 | –
IP3K1 + hpRNA:CR18854 | 1 | -0.656 | -2.17 | –
Phae1 | 1 | 1.05 | 1.13 | –
yem | 1 | 0.449 | 0.0522 | –
yem | 2 | -0.696 | 2.82 | –
Pdk1 | 1 | 2.37 | 6.44 | –
CG11929 | 1 | -1 | -0.0116 | –
CG17490 | 1 | -1.21 | -1.17 | –
Lac | 1 | 0.442 | -1.33 | –
CG32700 | 1 | 0.25 | 0.3 | 0.577
CG32700 | 2 | -0.014 | 0.148 | -1.68
pain | 1 | -0.044 | -0.257 | –
eas | 1 | -1.08 | 0.269 | –

Only “droplet/nuclear area B-score, replicate 2”, for 11 of the entries above:
DIP-delta #1	0.246
DIP-delta #2	-0.911
CG33158 #1	-0.4
CG33158 #2	-0.0498
CG33158 #3	-0.468
Pak3	0.495
CG33170 #1	-0.108
CG33170 #2	0.966
Not1 #1	2.02
Not1 #2	3.03
CG4822	-1.19

Next records:
predicted target | reagent | droplet/nuclear area B-score, replicate 1 | droplet/nuclear area B-score, replicate 2 | droplet/nuclear area B-score, replicate 3
CG10341 | 1 | -0.382 | -0.0259 | –
CG6567 | 1 | 0.105 | -1.89 | –
Glg1 | 1 | -0.243 | -0.00271 | 0.0562
Glg1 | 2 | 0.307 | 1.5 | –
Glg1 | 3 | -1.79 | -0.538 | –
CG9427 | 1 | 0.733 | -0.548 | –
drk | 1 | 1.01 | 1.55 | –
CG11600 | 1 | 0.0865 | 1.3 | –
CG13288 | 1 | 0.331 | 0.257 | –
CG15711 | 1 | 0.665 | – | –
LysX | 1 | -0.191 | 0.167 | –
mthl3 | 1 | 0.0314 | -1.35 | –
CG14762 | 1 | 0.459 | 0.061 | –
CG14762 | 2 | 0.809 | 3.44 | –
fend | 1 | 1.08 | 0.0252 | –
fend | 2 | 0.959 | -0.429 | -0.000839
CG6891 | 1 | 0.608 | -1.85 | –
orb | 1 | -1.63 | 1.61 | –
orb | 2 | 1.53 | -1.77 | –
Brf | 1 | 0.441 | -0.432 | –
Brf | 2 | -0.195 | -0.21 | –
CycJ | 1 | 0.0196 | -1.46 | –
Kap3 | 1 | 0.916 | – | -0.981
CG15414 | 1 | -0.667 | 0.237 | –
CG15414 | 2 | 0.00151 | 0.61 | –
sloth2 + sloth1 | 1 | -0.423 | -0.746 | –
sloth2 + sloth1 | 2 | -0.000378 | – | –
Pvf2 | 1 | -3.15 | -2.67 | –
Pvf2 | 2 | 2.63 | -3.65 | –
CG3589 | 1 | -0.995 | 0.183 | –
Yeti | 1 | 4.53 | 1.29 | –
CG13685 | 1 | 0.637 | -0.577 | –
CG31076 | 1 | -0.184 | -1.29 | –
CG2059 | 1 | -0.657 | -0.225 | –
Irk2 | 1 | -1.17 | -0.147 | –
CG15484 | 1 | -0.467 | 0.705 | 1.09
CG15484 | 2 | -0.684 | 0.657 | –
CG13484 | 1 | -0.0327 | 0.138 | –
Doa | 1 | 0.433 | -0.028 | –
Doa | 2 | 0.677 | -0.107 | –
Doa | 3 | 0.693 | -0.292 | –
Doa | 4 | 2.29 | -0.503 | –
Doa | 5 | -0.674 | -0.688 | –
CG12942 | 1 | 1.36 | 1.43 | –
gcm | 1 | -0.168 | 0.663 | –
luna | 1 | 0.554 | 1.65 | –
luna | 2 | 0.0337 | 0.301 | –
luna | 3 | 0.912 | -1.45 | -0.365
TwdlB | 1 | 2.18 | 0.388 | –
Yif1 | 1 | -0.63 | -0.126 | –
CG13127 | 1 | 0.137 | 0.387 | –
Adgf-D | 1 | -0.814 | 0.708 | –
Coq3 | 1 | -0.484 | -2.81 | –
CR11023 | 1 | -0.00585 | -0.00408 | –
Coop | 1 | -0.0141 | 0.0765 | –
